No constants are given. Whether binding was seen depends on the method and setting. In cells and extracts the contact can be indirect. A yes stands for co-enrichment or nearness to the bait. Other partners may have been found.

Amino acid sequences for entries named in this document (tags omitted).
UniProt Q8NA03: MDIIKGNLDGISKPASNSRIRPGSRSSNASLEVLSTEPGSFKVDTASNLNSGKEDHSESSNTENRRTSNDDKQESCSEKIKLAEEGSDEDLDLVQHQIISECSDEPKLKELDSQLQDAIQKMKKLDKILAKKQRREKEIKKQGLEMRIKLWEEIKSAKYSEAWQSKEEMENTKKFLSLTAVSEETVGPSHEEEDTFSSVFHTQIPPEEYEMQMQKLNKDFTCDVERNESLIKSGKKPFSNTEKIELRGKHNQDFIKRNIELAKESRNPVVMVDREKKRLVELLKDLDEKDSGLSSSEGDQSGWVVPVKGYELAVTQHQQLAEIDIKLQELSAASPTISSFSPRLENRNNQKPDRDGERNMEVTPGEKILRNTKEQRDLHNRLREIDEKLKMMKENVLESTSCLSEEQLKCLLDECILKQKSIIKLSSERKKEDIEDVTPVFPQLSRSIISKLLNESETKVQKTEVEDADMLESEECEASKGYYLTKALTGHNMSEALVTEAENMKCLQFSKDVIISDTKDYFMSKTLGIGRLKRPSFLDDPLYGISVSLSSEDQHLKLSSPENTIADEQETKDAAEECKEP

The assay concerns the target FSIP1 (His-tagged) (UniProt Q8NA03). Description: co-IP + affinity purification with mass spectrometry; anti-His-tag immunoprecipitation from RIPA lysate of cells over-expressing FSIP1-His, compared with empty-vector cells and an IgG control; immunoblot and MALDI-TOF/TOF of in-gel digested bands.

In the case of “multidrug resistance protein 1 (MRP1) (from UniProt P33527-1 1-1531)”, the binding result is “binds”.

(Values after PMC6393503.)
